Results published in PMC7708074.
Where a chain is given by its changes, count along the chain named. Numbers in names are those of the source. These are yes or no findings as the source states them, for the method shown. In cells and extracts the contact can be indirect. Some results given as binding are weak or reduced against the parent protein; the word gives no strength. Sequences can lack the tags named with a protein. Blank lines part the entries; values can stand above or below the binder they belong to.

Target: T1, Upf1-TAP (TAP-tagged Upf1 helicase) (S. cerevisiae) (UniProt P30771)
T1 sequence: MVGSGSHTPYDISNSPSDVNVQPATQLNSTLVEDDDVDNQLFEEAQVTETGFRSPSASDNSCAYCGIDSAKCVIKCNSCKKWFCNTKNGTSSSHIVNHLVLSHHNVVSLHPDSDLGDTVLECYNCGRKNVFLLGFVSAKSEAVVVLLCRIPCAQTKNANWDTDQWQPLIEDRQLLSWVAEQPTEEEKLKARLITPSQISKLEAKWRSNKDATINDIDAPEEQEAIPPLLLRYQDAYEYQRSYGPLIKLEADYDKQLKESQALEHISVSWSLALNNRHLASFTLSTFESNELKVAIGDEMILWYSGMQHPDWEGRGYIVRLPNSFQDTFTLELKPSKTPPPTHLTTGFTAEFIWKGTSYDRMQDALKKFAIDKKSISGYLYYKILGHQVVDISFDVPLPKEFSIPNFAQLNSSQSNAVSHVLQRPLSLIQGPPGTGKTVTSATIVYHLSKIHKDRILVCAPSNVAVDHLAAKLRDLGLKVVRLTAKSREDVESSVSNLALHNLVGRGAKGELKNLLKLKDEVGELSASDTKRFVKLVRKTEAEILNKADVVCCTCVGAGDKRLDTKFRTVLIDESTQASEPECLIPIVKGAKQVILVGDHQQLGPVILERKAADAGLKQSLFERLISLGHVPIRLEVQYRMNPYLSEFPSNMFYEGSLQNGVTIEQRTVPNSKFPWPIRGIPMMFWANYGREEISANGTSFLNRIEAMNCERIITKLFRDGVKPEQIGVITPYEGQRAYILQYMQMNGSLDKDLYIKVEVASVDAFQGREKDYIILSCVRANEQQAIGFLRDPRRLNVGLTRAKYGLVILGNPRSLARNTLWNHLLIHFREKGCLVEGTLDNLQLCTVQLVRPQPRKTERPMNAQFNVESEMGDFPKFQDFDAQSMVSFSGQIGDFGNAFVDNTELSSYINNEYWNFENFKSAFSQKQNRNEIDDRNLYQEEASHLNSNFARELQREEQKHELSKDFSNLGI
Test: co-IP; Upf1-TAP captured from 1 mg of yeast total cell extract on IgG-coated magnetic beads (Dynabeads PanMouse IgG), 1 h at 4°C; 20 mM HEPES pH 7.4, 145 mM KCl; extract and beads with or without RNase A and RNase T1; Rbs1-Myc detected by anti-Myc western blot

binding: binds
B1: Rbs1-Myc (endogenous Myc-tagged Rbs1 expressed from the chromosomal locus) (protein, UniProt Q05672 1-457)
chain: MTALDSRNWGLTPAMETGLFQKPQDRIFIIELENSIVSFINSNTESFQLRPMNSYYRLLSHQIAEYHNLNHVLARTQDSCVILFKGENFQKIEGKPLLQELQLNKKPEECASSSESIEKSNNNRIFRILKRKEVGNECDYKIDGNTRTPNSNLTANSNKDQKIEIDDKSSTDLEQERIEKERLYEQRKQEIFDKLNKSEDDVKSTNSSGSSDSDNEWSDWLNGDDSNTQTSNGSVSSSSPFNSSVTTIQVNKPQQQFYDSRRGRGGRRRGTNNYKDAYRGQSRRNKENGGYQSGYSSPYLVYPPPQMGGNSLPTYPLMYNPAGPAPGPAPSPMVMGNNTVFMNPYMYNMNPQGSCSFGTPIPMYPPYQYQYQYQYNTQYHSGPYSNTPSYNSNNYTRSSANKYHHFQGKNSYSGAIPKRSDDSNSNKNEGIRRASVEGSPSSRDTDSVEMKFDKLNI

binding: binds
B2: Rbs1 R3H-Myc (Arg57Ala, His61Ala) overexpressed from the multicopy plasmid [RBS1 R3H-Myc] (protein, UniProt Q05672 1-457)
chain: B1 chain with R57A, H61A

binding: binds
B3: Rbs1-Myc overexpressed from the multicopy plasmid [RBS1-Myc] (protein, UniProt Q05672 1-457)
chain: B1 chain
